Earlier results as cited in patent US11925607B2, “Ketamine composition for use in a method of treatment of depression by pulmonary administration” (Celon Pharma S.A., priority 2018, dated 2024).
Some results were stated once for a whole list of compounds, not compound by compound.

System: patients with treatment-resistant depression
Conditions: human, in vivo; cited from earlier work

Compound: CNC1(c2ccccc2Cl)CCCCC1=O (racemic) [ketamine]
- time to antidepressant effect from administration: 2 to 3 h

Compound: CN[C@]1(c2ccccc2Cl)CCCCC1=O [esketamine]
- time to antidepressant effect from administration: 2 to 3 h
